Test results as given in patent US20200270125A1.

B1: 4D5 Parental Fab (Fab, V domains shown)
VH: QVQLKQSGPELVKPGASVKLSCKASGYTFTTDDINWVKQRPGQGLEWIGWIYPRDDRTKYNDKFKDKATLTVDTSSNTAYMDLHSLTSEDSAVYFCSSLEDTYWGQGTLVAVSS
VL: DIVMTQSPSSLAVSAGEKVTMTCKSSQSLLNSRTRKNYLAWYQQKPGQSPKLLIYWASTRESGVPDRFTGSGSGTDFSLTISSVQAEDLAVYYCKQSYNLYTFGGGTKLEIKR
B2: 13B1 Parental Fab (Fab, V domains shown)
VH: QVQLKQSGAELMKPGASVKLSCKATGYTFTGKWIEWVKQRPGHGLEWIGEILPGTGSTNYNEKFKGKATFTADSSSNTAYMQLSSLTTEDSAMYYCLRSEDVWGTGTTVTVSS
VL: B1 VL with T22S, S78T, L100I, Y101P

Experiments:
[1] = target: recombinant dog MASP-3 (dog); assay: cross-species binding experiments
[2] = target: recombinant dog MASP-3 (dog); assay: cross-species binding, ranking of Fab binding

Binder	binding [1]	binding [2]
B1	binds	binds
B2	binds	binds

Changes are numbered by the printed parent chain. These are yes or no findings as the source states them, for the method shown. Binding can be weak; no strength is given.
